Measured values published in publication PMC4373798.
These are yes or no findings as the source states them, for the method shown. Binding seen in cells or lysates may run through a third protein.

The chains behind the UniProt entries cited, without tags or fusion partners.
UniProt P26231: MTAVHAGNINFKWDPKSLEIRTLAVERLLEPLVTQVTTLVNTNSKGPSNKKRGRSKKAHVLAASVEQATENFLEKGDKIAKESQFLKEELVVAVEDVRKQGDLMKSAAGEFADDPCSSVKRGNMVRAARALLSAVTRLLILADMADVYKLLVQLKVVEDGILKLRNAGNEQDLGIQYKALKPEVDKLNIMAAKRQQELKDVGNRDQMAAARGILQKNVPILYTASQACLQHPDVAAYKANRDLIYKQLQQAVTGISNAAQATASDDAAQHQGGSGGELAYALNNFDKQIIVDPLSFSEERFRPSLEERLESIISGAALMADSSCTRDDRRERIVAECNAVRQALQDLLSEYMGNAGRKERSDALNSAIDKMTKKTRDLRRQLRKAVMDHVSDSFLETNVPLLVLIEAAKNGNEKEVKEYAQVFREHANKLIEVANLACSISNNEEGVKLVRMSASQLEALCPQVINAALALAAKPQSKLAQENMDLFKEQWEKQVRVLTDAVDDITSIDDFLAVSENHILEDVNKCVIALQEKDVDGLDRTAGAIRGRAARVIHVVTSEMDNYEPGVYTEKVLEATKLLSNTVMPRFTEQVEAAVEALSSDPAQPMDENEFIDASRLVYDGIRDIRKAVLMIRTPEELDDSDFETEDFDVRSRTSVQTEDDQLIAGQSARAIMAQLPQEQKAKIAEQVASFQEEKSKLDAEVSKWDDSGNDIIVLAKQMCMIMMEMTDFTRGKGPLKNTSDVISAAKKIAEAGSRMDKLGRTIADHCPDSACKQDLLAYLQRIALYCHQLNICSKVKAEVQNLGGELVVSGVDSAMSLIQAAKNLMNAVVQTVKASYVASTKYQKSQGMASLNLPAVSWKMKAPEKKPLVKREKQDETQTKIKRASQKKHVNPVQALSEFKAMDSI

Target: GFP-tagged BirA*-α-catenin (GFP-BirA*-α-catenin fusion with epithelia-specific α-catenin) (UniProt P26231)
Experiment: co-IP; lysates of BirA*-α-catenin MDCK cells from stretch chambers; GFP or E-cadherin antibody cross-linked to Protein A magnetic beads; 0.1% SDS wash; Western blot with antibodies or streptavidin-HRP

B1: β-catenin (protein, UniProt B6V8E6 1-781)
chain: MATQADLMELDMAMEPDRKAAVSHWQQQSYLDSGIHSGATTTAPSLSGKGNPEEEDVDTTQVLYEWEQGFSQSFTQEQVADIDGQYAMTRAQRVRAAMFPETLDEGMQIPSTQFDAAHPTNVQRLAEPSQMLKHAVVNLINYQDDAELATRAIPELTKLLNDEDQVVVNKAAVMVHQLSKKEASRHAIMRSPQMVSAIVRTMQNTNDVETARCTAGTLHNLSHHREGLLAIFKSGGIPALVKMLGSPVDSVLFYAITTLHNLLLHQEGAKMAVRLAGGLQKMVALLNKTNVKFLAITTDCLQILAYGNQESKLIILASGGPQALVNIMRTYTYEKLLWTTSRVLKVLSVCSSNKPAIVEAGGMQALGLHLTDPSQRLVQNCLWTLRNLSDAATKQEGMEGLLGTLVQLLGSDDINVVTCAAGILSNLTCNNYKNKMMVCQVGGIEALVRTVLRAGDREDITEPAICALRHLTSRHQEAEMAQNAVRLHYGLPVVVKLLHPPSHWPLIKATVGLIRNLALCPANHAPLREQGAIPRLVQLLVRAHQDTQRRTSMGGTQQQFVEGVRMEEIVEGCTGALHILARDVHNRIVIRGLNTIPLFVQLLYSPIENIQRVAAGVLCELAQDKEAAEAIEAEGATAPLTELLHSRNEGVATYAAAVLFRMSEDKPQDYKKRLSVELTSSLFRTEPMAWNETADLGLDIGAQGEPLGYRQDDPSYRSFHSGGYGQDALGMDPMMEHEMGGHHPGADYPVDGLPDLGHAQDLMDGLPPGDSNQLAWFDTDL
- binding: no binding (condition: with 0.1% SDS wash)
